From patent US20230052369A1
Results are given in words; binding and its absence hold for the method and conditions named. Some entries that bind do so weakly or less than the wild type.

Protein sequences, listed by entry. Tags and fused reporters are not part of them. Residues count along the entry.
UniProt P15328, residues 25-234: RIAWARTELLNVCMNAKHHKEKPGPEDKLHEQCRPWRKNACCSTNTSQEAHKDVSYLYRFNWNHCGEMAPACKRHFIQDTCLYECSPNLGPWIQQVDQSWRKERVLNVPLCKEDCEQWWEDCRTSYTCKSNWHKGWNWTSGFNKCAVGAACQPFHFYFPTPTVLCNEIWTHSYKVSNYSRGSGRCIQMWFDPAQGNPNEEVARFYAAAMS

Tests used:
[1] = target: full-length human FRα, on 293E cells (human) (UniProt P15328); test: flow cytometry, 293E cells expressing FRα
[2] = target: recombinant His-tagged human FRα (human) (UniProt P15328); test: BLI, supernatant
[3] = target: recombinant His-tagged human FRα (human) (UniProt P15328); test: BLI, supernatant and purified
[4] = target: recombinant His-tagged human FRα (human) (UniProt P15328); test: BLI

Row | Binder | binding [2] | binding [4] | other results
1 | v17721 (scFv) scFv: QVQLVQSGAEVVKPGASVKISCKASGYTFTGYFMNWVKQSPGQSLEWIGRIHPYDGDTFYNQKFQGKATLTVDKSSNTAHMELLSLTSEDFAVYYCTRYDGSRAMDYWGQGTTVTVSSGGGGSGGGGSGGGGSDIVLTQSPLSLAVSLGQPAIISCKASQSVSFAGTSLMHWYHQKPGQQPRLLIYRASNLEAGVPDRFSGSGSKTDFTLTISPVEAEDAATYYCQQSREYPYTFGGGTKLEIK | – | – | binding [1]: binds
2 | v23804 (antibody, human IgG1, kappa, V domains shown) VH: EVQLVESGGGLVQPGGSLRLSCAASGFTISNNYYMCWVRQAPGKGLEWVSCIYGGISGRTYYADSVKGRFTISKDNSKNTLYLQMNSLRAEDTAVYYCVRGYVGTSNLWGQGTLVTVSS VL: DIQMTQSPSSLSASVGDRVTITCQASQSIYSSLAWYQQKPGKAPKLLIYDASHLASGVPSRFSGSRYGTDFTLTISSVQPEDFATYYCQGGWYSSAATYVPNTFGGGTKVEVKR | binds | – | binding [3]: binds
3 | v23806 (antibody, human IgG1, kappa, V domains shown) VH: EVQLVESGGGLVQPGGSLRLSCAASGFTISNNYYMCWVRQAPGKGLEWIACIYGGISGRTYYADSAKGRFTISKDSSKNTVYLQMNSLRAEDTAVYYCVRGYVGTSNLWGQGTLVTVSS VL: DIQMTQSPSSLSASVGDRVTITCQASQSIYSSLAWYQQKPGKAPKLLIYDASHLASGVPSRFSGSRYGTDFTLTISSVQPEDFATYYCQGGWYSSAATYVPNTFGGGTKVEVKR | binds | – | binding [3]: binds
4 | v23807 (antibody, human IgG1, kappa, V domains shown) VH: EVQLVESGGGLVQPGGSLRLSCAASGFTISNNYYMCWVRQAPGKGLEWIACIYGGISGRTYYADSAKGRFTISKDSSNTVYLQMNSLRAEDTAVYYCVRGYVGTSNLWGQGTLVTVSS VL: DIQMTQSPSSLSASVGDRVTITCQASQSIYSSLAWYQQKPGKAPKLLIYDASHLASGVPSRFSGSRYGTDFTLTISSVQPEDFATYYCQGGWYSSAATYVPNTFGGGTKVEVKR | binds | – | binding [3]: binds
5 | v23809 (antibody, human IgG1, kappa, V domains shown) VH: EVQLVESGGGLVQPGGSLRLSCAASGFTISNNYYMCWVRQAPGKGLEWVSCIYGGISGRTYYADSVKGRFTISKDNSKNTLYLQMNSLRAEDTAVYYCVRGYVGTSNLWGQGTLVTVSS VL: DIQMTQSPSSLSASVGDRVTITCQASQSIYSSLAWYQQKPGKAPKLLIYDASHLASGVPSRFSGSGSGTDFTLTISSVQPEDAATYYCQGGWYSSAATYVPNTFGGGTKVEVKR | binds | – | –
6 | v23814 (antibody, human IgG1, kappa, V domains shown) VH: EVQLVESGGGLVQPGGSLRLSCAASGFTISNNYYMCWVRQAPGKGLEWVSCIYGGISGRTYYADSVKGRFTISKDNSKNTLYLQMNSLRAEDTAVYYCVRGYVGTSNLWGQGTLVTVSS VL: DIQMTQSPSSLSASVGDRVTITCQASQSIYSSLAWYQQKPGKAPKLLIYDASHLASGVPSRFSGSRYGTDFTLTISSVQPEDAATYYCQGGWYSSAATYVPNTFGGGTKVEVKR | binds | – | binding [3]: binds
7 | v23816 (antibody, human IgG1, kappa, V domains shown) VH: EVQLVESGGGLVQPGGSLRLSCAASGFTISNNYYMCWVRQAPGKGLEWIACIYGGISGRTYYADSAKGRFTISKDSSKNTVYLQMNSLRAEDTAVYYCVRGYVGTSNLWGQGTLVTVSS VL: DIQMTQSPSSLSASVGDRVTITCQASQSIYSSLAWYQQKPGKAPKLLIYDASHLASGVPSRFSGSRYGTDFTLTISSVQPEDAATYYCQGGWYSSAATYVPNTFGGGTKVEVKR | binds | – | –
8 | v23817 (antibody, human IgG1, kappa, V domains shown) VH: EVQLVESGGGLVQPGGSLRLSCAASGFTISNNYYMCWVRQAPGKGLEWIACIYGGISGRTYYADSAKGRFTISKDSSNTVYLQMNSLRAEDTAVYYCVRGYVGTSNLWGQGTLVTVSS VL: DIQMTQSPSSLSASVGDRVTITCQASQSIYSSLAWYQQKPGKAPKLLIYDASHLASGVPSRFSGSRYGTDFTLTISSVQPEDAATYYCQGGWYSSAATYVPNTFGGGTKVEVKR | binds | – | binding [3]: binds
9 | v23810 (antibody, human IgG1, kappa, V domains shown) VH: EVQLVESGGGLVQPGGSLRLSCAASGFTISNNYYMCWVRQAPGKGLEWIACIYGGISGRTYYADSAKGRFTISKDNSKNTVYLQMNSLRAEDTAVYYCVRGYVGTSNLWGQGTLVTVSS VL: DIQMTQSPSSLSASVGDRVTITCQASQSIYSSLAWYQQKPGKAPKLLIYDASHLASGVPSRFSGSGSGTDFTLTISSVQPEDAATYYCQGGWYSSAATYVPNTFGGGTKVEVKR | binds | – | –
10 | v23813 (antibody, human IgG1, kappa, V domains shown) VH: EVQLVESGGGLVQPGGSLRLSCAASGFTISNNYYMCWVRQAPGKGLEWIACIYGGISGRTYYADWAKGRFTISKDSSKNTVYLQMNSLRAEDTAVYYCVRGYVGTSNLWGQGTLVTVSS VL: DIQMTQSPSSLSASVGDRVTITCQASQSIYSSLAWYQQKPGKAPKLLIYDASHLASGVPSRFSGSGSGTDFTLTISSVQPEDAATYYCQGGWYSSAATYVPNTFGGGTKVEVKR | binds | – | –
11 | v29676 (scFv) scFv: DIQMTQSPSSLSASVGDRVTITCQASQSIYSSLAWYQQKPGKAPKLLIYDASHLASGVPSRFSGSRYGTDFTLTISSVQPEDFATYYCQGGWYSSAATYVPNTFGGGTKVEVKGGGGSGGGGSGGGGSEVQLVESGGGLVQPGGSLRLSCAASGFTISNNYYMCWVRQAPGKGLEWIACIYGGISGRTYYADSAKGRFTISKDSSNTVYLQMNSLRAEDTAVYYCVRGYVGTSNLWGQGTLVTVSS | – | binds | –
12 | v29677 (scFv) scFv: DIQMTQSPSSLSASVGDRVTITCQASQSIYSSLAWYQQKPGKAPKLLIYDASHLASGVPSRFSGSRYGTDFTLTISSVQPEDFATYYCQGGWYSSAATYVPNTFGGGTKVEVKGGSGGGSGGGSGGGSGGGSGEVQLVESGGGLVQPGGSLRLSCAASGFTISNNYYMCWVRQAPGKGLEWIACIYGGISGRTYYADSAKGRFTISKDSSNTVYLQMNSLRAEDTAVYYCVRGYVGTSNLWGQGTLVTVSS | – | binds | –
13 | v29678 (scFv) scFv: DIQMTQSPSSLSASVGDRVTITCQASQSIYSSLAWYQQKPGKAPKLLIYDASHLASGVPSRFSGSRYGTDFTLTISSVQPEDFATYYCQGGWYSSAATYVPNTFGGGTKVEVKGGGGSGGGGSGGGGSEVQLVESGGGLVQPGGSLRLSCAASGFTISNNYYMCWVRQAPGKGLEWIACIYGGISGRTYYADSAKGRFTISKDSSNTVYLQMNSLRAEDTAVYYCVRGYVGTSNLWGQGTLVTVSS | – | binds | –
14 | v29679 (scFv) scFv: EVQLVESGGGLVQPGGSLRLSCAASGFTISNNYYMCWVRQAPGKGLEWIACIYGGISGRTYYADSAKGRFTISKDSSNTVYLQMNSLRAEDTAVYYCVRGYVGTSNLWGQGTLVTVSSGGGGSGGGGSGGGGSDIQMTQSPSSLSASVGDRVTITCQASQSIYSSLAWYQQKPGKAPKLLIYDASHLASGVPSRFSGSRYGTDFTLTISSVQPEDFATYYCQGGWYSSAATYVPNTFGGGTKVEVK | – | binds | –
15 | v29680 (scFv) scFv: DIQMTQSPSSLSASVGDRVTITCQASQSIYSSLAWYQQKPGKAPKLLIYDASHLASGVPSRFSGSRYGTDFTLTISSVQPEDFATYYCQGGWYSSAATYVPNTFGGGTKVEVKGGSGGGSGGGSGGGSGGGSGEVQLVESGGGLVQPGGSLRLSCAASGFTISNNYYMCWVRQAPGKGLEWIACIYGGISGRTYYADSAKGRFTISKDSSNTVYLQMNSLRAEDTAVYYCVRGYVGTSNLWGQGTLVTVSS | – | binds | –
16 | v29681 (scFv) scFv: EVQLVESGGGLVQPGGSLRLSCAASGFTISNNYYMCWVRQAPGKGLEWIACIYGGISGRTYYADSAKGRFTISKDSSNTVYLQMNSLRAEDTAVYYCVRGYVGTSNLWGQGTLVTVSSGGSGGGSGGGSGGGSGGGSGDIQMTQSPSSLSASVGDRVTITCQASQSIYSSLAWYQQKPGKAPKLLIYDASHLASGVPSRFSGSRYGTDFTLTISSVQPEDFATYYCQGGWYSSAATYVPNTFGGGTKVEVK | – | binds | –
17 | v29682 (scFv) scFv: DIQMTQSPSSLSASVGDRVTITCQASQSIYSSLAWYQQKPGKAPKLLIYDASHLASGVPSRFSGSRYGTDFTLTISSVQPEDFATYYCQGGWYSSAATYVPNTFGCGTKVEVKGGGGSGGGGSGGGGSEVQLVESGGGLVQPGGSLRLSCAASGFTISNNYYMCWVRQAPGKCLEWIACIYGGISGRTYYADSAKGRFTISKDSSNTVYLQMNSLRAEDTAVYYCVRGYVGTSNLWGQGTLVTVSS | – | binds | –
18 | v29683 (scFv) scFv: EVQLVESGGGLVQPGGSLRLSCAASGFTISNNYYMCWVRQAPGKCLEWIACIYGGISGRTYYADSAKGRFTISKDSSNTVYLQMNSLRAEDTAVYYCVRGYVGTSNLWGQGTLVTVSSGGGGSGGGGSGGGGSDIQMTQSPSSLSASVGDRVTITCQASQSIYSSLAWYQQKPGKAPKLLIYDASHLASGVPSRFSGSRYGTDFTLTISSVQPEDFATYYCQGGWYSSAATYVPNTFGCGTKVEVK | – | binds | –
19 | v29684 (scFv) scFv: DIQMTQSPSSLSASVGDRVTITCQASQSIYSSLAWYQQKPGKAPKLLIYDASHLASGVPSRFSGSRYGTDFTLTISSVQPEDFATYYCQGGWYSSAATYVPNTFGCGTKVEVKGGSGGGSGGGSGGGSGGGSGEVQLVESGGGLVQPGGSLRLSCAASGFTISNNYYMCWVRQAPGKCLEWIACIYGGISGRTYYADSAKGRFTISKDSSNTVYLQMNSLRAEDTAVYYCVRGYVGTSNLWGQGTLVTVSS | – | binds | –
20 | v29685 (scFv) scFv: EVQLVESGGGLVQPGGSLRLSCAASGFTISNNYYMCWVRQAPGKCLEWIACIYGGISGRTYYADSAKGRFTISKDSSNTVYLQMNSLRAEDTAVYYCVRGYVGTSNLWGQGTLVTVSSGGSGGGSGGGSGGGSGGGSGDIQMTQSPSSLSASVGDRVTITCQASQSIYSSLAWYQQKPGKAPKLLIYDASHLASGVPSRFSGSRYGTDFTLTISSVQPEDFATYYCQGGWYSSAATYVPNTFGCGTKVEVK | – | binds | –
